{"source": "patent US20040096894A1", "about": "“Crystal structures of P- selectin, P- and E-selectin complexes, and uses thereof” (priority 2000, published 2004)", "target": "T1, P-LE (lectin/EGF domains of P-selectin) (Homo sapiens, UniProt P16109)", "T1 construct": "The lectin-EGF (LE) domains (153 amino acids) of P-selectin (P-LE) and E-selectin (E-LE); IgG1 Fc (CH2-CH3 region) (C, cleaved yes); made in house; host or cells: CHO cells", "T1 sequence (P16109 42-198)": "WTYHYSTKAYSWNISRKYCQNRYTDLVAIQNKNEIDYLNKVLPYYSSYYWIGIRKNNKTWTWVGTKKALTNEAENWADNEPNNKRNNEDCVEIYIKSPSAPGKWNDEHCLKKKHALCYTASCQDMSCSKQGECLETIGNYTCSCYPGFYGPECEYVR", "test": "BIAcore surface plasmon resonance: solution-phase P-LE binding to immobilized sPSGL and PSGL-1 19ek peptides", "details": "read-out: KD of P-LE for immobilized 19ek peptide, 25° C., HBS-P buffer with 1 mM each CaCl2 and MgCl2, SP-1 and GP-1 values are estimated", "description": "FIGS. 1C-1-1C-6: Binding affinity determinations of solution-phase P-LE reacted with immobilized sPSGL and purified 19ek peptides by BIAcore analysis. First row, left-to-right: sPSGL (FIGS. 1C-1), SGP-3 (FIGS. 1C-2) and SGP-2 (FIGS. 1C-3). Second row, left-to-right: SGP-1 (FIGS. 1C-4), GP-1 (FIGS. 1C-5) and SP-1 (FIGS. 1C-6). P-LE at the indicated concentrations was reacted with immobilized ligands (to determine the total binding signal) and against control […] containing no ligand (to determine non-specific binding). The equilibrium responses (Req) at each concentration of P-LE are shown. At each P-LE concentration tested, specific binding signals (squares) were determined by subtracting non-specific responses (triangles) from total binding signals (diamonds). KDs and standard deviations (shown) were determined by line-fitting of specific binding curves using BIAevaluation software (BIAcore) and are the products of three-to-ten separate experiments. KD determinations using line-fitting agreed well with values determined by linear regression analysis of Scatchard plots (not shown).\nP-LE/19ek Peptide Binding Studies. […] Glycosylated P-LE and E-LE, quantitated by experimentally determined extinction coefficients (280 nm), were injected over the19ek peptide, sPSGL and control surfaces at 40 μL/min. […]", "note": "At least one compound was matched to its structure with a doubt left. Numbered stars: 1 amine (or outer) side, 2 acyl side, 3 side chain; on linkers, the order of the positions; unused ones are H or OH. Square brackets hold non-standard residues; d marks the D form. Side chains are listed from the residue outwards. Peptide text beside a SMILES is read from it. * marks the point of attachment. X1 = CC(=O)N[C@H]1[C@H](OC[C@H]2O[C@H](O[C@H](C)[C@H](N[*:1])C(=O)[*:2])[C@H](NC(C)=O)[C@@H](O[C@@H]3O[C@H](CO)[C@H](O)[C@H](O[C@]4(C(=O)O)C[C@H](O)[C@@H](NC(C)=O)[C@H]([C@H](O)[C@H](O)CO)O4)[C@H]3O)[C@H]2O)O[C@H](CO)[C@@H](O[C@@H]2O[C@H](CO)[C@H](O)[C@H](O[C@]3(C(=O)O)C[C@H](O)[C@@H](NC(C)=O)[C@H]([C@H](O)[C@H](O)CO)O3)[C@H]2O)[C@@H]1O[C@@H]1O[C@@H](C)[C@@H](O)[C@@H](O)[C@@H]1O; Biotin = O=C1N[C@H]2[C@H](CS[C@H]2CCCCC(=O)*)N1; pGlu = O=C1CC[C@@H](C(=O)O)N1; Ahx = NCCCCCC(=O)O"}
{"smiles": "CSCC[C@H](NC(=O)[C@H](CCSC)NC(=O)[C@@H]1CCCN1C(=O)[C@H](CCCNC(=N)N)NC(=O)[C@@H]1CCCN1C(=O)[C@@H]1CCCN1C(=O)[C@H](CCC(=O)O)NC(=O)[C@@H](NC(=O)[C@H](CCC(=O)O)NC(=O)[C@@H]1CCCN1C(=O)[C@H](CC(C)C)NC(=O)[C@H](Cc1ccccc1)NC(=O)[C@H](CC(=O)O)NC(=O)[C@H](Cc1ccc(O)cc1)NC(=O)[C@H](CC(=O)O)NC(=O)[C@H](CC(C)C)NC(=O)[C@H](Cc1ccc(O)cc1)NC(=O)[C@H](CCC(=O)O)NC(=O)[C@H](Cc1ccc(O)cc1)NC(=O)[C@H](CCC(=O)O)NC(=O)[C@@H](NC(=O)[C@H](C)NC(=O)[C@@H]1CCC(=O)N1)[C@@H](C)O)[C@@H](C)O[C@H]1O[C@H](CO[C@@H]2O[C@H](CO)[C@@H](O[C@@H]3O[C@H](CO)[C@H](O)[C@H](O[C@]4(C(=O)O)C[C@H](O)[C@@H](NC(C)=O)[C@H]([C@H](O)[C@H](O)CO)O4)[C@H]3O)[C@H](O[C@@H]3O[C@@H](C)[C@@H](O)[C@@H](O)[C@@H]3O)[C@H]2NC(C)=O)[C@H](O)[C@H](O[C@@H]2O[C@H](CO)[C@H](O)[C@H](O[C@]3(C(=O)O)C[C@H](O)[C@@H](NC(C)=O)[C@H]([C@H](O)[C@H](O)CO)O3)[C@H]2O)[C@H]1NC(C)=O)C(=O)N[C@@H](CC(=O)O)C(=O)N[C@@H](CC(=O)O)C(=O)N[C@@H](CC(=O)O)C(=O)N[C@@H](CC(=O)O)C(=O)N[C@@H](CCCCNC(=O)CCCCCNC(=O)CCCC[C@@H]1SC[C@@H]2NC(=O)N[C@@H]21)C(=O)O", "note": "[GP-1] ([pGlu]ATEYEYLDYDFLPE[X1]EPPRPMMDDDDK([Ahx-Biotin])-OH; C-terminus assumed)", "values": [{"measurement": "Kd", "value": 31.1, "unit": "µM"}]}
